No constants are given. Whether binding was seen depends on the method and setting. Binding seen in cells or lysates may run through a third protein. A yes stands for co-enrichment or nearness to the bait. Other partners may have been found.
What follows are molecules tested against catalytic domain of TET2 (Tet2CD) (UniProt Q6N021) (assay: affinity purification with mass spectrometry; IP of Tet2CD (antibody normally anti-Flag, overnight 4 °C, Protein A/G magnetic beads) from whole-cell lysates of SW480 and SW620 cells; trypsin digestion on beads; label-free quantification).

Protein sequences, listed by entry. Tags and fused reporters are not part of them. Lines headed by an entry give the natural chain unless they say otherwise; changes in a name come on top.
UniProt Q13547: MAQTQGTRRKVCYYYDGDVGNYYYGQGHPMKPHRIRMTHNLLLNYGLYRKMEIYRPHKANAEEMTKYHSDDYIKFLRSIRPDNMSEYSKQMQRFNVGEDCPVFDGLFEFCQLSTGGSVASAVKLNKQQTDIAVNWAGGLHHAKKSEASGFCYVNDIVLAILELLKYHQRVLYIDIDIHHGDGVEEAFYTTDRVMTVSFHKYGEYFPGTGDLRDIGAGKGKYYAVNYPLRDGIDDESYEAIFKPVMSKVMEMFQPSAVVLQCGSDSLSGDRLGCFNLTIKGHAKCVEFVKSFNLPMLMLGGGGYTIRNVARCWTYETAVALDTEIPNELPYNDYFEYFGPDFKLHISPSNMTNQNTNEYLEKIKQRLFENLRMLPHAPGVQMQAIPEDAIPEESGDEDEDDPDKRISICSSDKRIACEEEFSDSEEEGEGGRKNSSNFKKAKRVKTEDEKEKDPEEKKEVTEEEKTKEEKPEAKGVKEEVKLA
UniProt P35222: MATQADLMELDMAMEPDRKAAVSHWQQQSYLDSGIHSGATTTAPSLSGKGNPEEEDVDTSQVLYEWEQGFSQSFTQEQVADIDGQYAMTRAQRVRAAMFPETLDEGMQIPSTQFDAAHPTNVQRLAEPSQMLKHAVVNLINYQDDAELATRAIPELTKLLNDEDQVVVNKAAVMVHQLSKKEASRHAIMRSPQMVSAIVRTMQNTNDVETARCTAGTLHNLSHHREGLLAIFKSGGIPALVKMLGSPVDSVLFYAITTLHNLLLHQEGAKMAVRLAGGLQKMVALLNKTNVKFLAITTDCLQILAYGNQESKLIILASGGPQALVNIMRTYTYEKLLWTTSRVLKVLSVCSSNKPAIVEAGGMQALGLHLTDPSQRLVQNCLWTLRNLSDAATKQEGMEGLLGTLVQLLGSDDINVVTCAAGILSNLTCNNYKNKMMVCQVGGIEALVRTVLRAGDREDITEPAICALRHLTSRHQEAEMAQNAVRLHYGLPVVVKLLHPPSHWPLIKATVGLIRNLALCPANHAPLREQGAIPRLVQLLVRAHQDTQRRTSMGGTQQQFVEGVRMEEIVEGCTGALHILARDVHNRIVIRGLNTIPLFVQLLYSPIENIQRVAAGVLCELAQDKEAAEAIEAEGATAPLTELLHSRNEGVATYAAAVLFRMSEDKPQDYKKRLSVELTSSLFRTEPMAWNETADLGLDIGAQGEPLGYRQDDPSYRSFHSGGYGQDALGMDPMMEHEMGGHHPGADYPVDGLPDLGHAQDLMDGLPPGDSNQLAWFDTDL

| Molecule | binding |
| --- | --- |
| HDAC1 (from UniProt Q13547 1-482) | binds |
| SAP30 (protein, UniProt O75446 1-220) MNGFTPDEMSRGGDAAAAVAAVVAAAAAAASAGNGTGAGTGAEVPGAGAVSAAGPPGAAGPGPGQLCCLREDGERCGRAAGNASFSKRIQKSISQKKVKIELDKSARHLYICDYHKNLIQSVRNRRKRKGSDDDGGDSPVQDIDTPEVDLYQLQVNTLRRYKRHFKLPTRPGLNKAQLVEIVGCHFRSIPVNEKDTLTYFIYSVKNDKNKSDLKVDSGVH | binds |

Further lines, results first:

| binding | Molecule |
| --- | --- |
| binds | β-catenin (encoded by the CTNNB1 gene) (from UniProt P35222 1-781) |
| binds | PSPC1 (protein, UniProt Q8WXF1 1-523) MMLRGNLKQVRIEKNPARLRALESAVGESEPAAAAAMALALAGEPAPPAPAPPEDHPDEEMGFTIDIKSFLKPGEKTYTQRCRLFVGNLPTDITEEDFKRLFERYGEPSEVFINRDRGFGFIRLESRTLAEIAKAELDGTILKSRPLRIRFATHGAALTVKNLSPVVSNELLEQAFSQFGPVEKAVVVVDDRGRATGKGFVEFAAKPPARKALERCGDGAFLLTTTPRPVIVEPMEQFDDEDGLPEKLMQKTQQYHKEREQPPRFAQPGTFEFEYASRWKALDEMEKQQREQVDRNIREAKEKLEAEMEAARHEHQLMLMRQDLMRRQEELRRLEELRNQELQKRKQIQLRHEEEHRRREEEMIRHREQEELRRQQEGFKPNYMENREQEMRMGDMGPRGAINMGDAFSPAPAGNQGPPPMMGMNMNNRATIPGPPMGPGPAMGPEGAANMGTPMMPDNGAVHNDRFPQGPPSQMGSPMGSRTGSETPQAPMSGVGPVSGGPGGFGRGSQGGNFEGPNKRRRY |
